The results in this text go back to PubChem BioAssay AID662 (National Center for Advancing Translational Sciences (NCATS), 2007).

The other results are listed elsewhere or left out. The main result of the screen is listed elsewhere. These columns were measured beside it and carry no call. The list favours compounds with an active or inconclusive main result. Words in brackets tell the shape of the fitted curve; partial curves, single points and poor fits give uncertain potencies.

A short description of this experiment: Cell signaling CRE-BLA (Fsk stim). To be noted: CHO CRE-bla reporter (cAMP response element driving beta-lactamase), forskolin EC10, beta-lactamase ratio; measured here: 460 nm blue channel. Put shortly: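 Cells were plated overnight at 37 °C, exposed to compound titrations plus EC10 NKH 477 for 3 h, then given CCF4 dye for 2 h at room temperature. Blue/green (460/530 nm) ratio was converted to %Activity and AC50 values calculated.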
As to `CC(=O)c1cc2c(cc1NC(=O)c1cc3nc(C(C)C)cc(C(F)(F)F)n3n1)OCO2`, the AC50 – broadly, the concentration at which the activity in the assay is half-maximal – was 5.01 µM [rising, partial curve].
The same measure for `Cc1ccc(-c2nnc3c4ccccc4c(C)nn23)cc1S(=O)(=O)N1CCN(CCO)CC1`: 3.16 µM [rising, full curve]; for `COc1cccc(C(CC(=O)NCCN2CCOCC2)NS(=O)(=O)c2ccc(C)cc2)c1OC` (configuration not stated): 0.00398 µM [falling, full curve]; for `CCc1ccc(S(=O)(=O)NCc2cn3ccccc3n2)s1`: 25.1 µM [rising, single point].
The same measure for `O=c1nc(N2CCOCC2)ccn1-c1nc(-c2ccccc2)oc1-c1ccccc1`: 0.2 µM [rising, full curve, poor fit].
The same measure for `O=c1[nH]c2c(cc1CNCCN1CCOCC1)c(-c1cccc(F)c1)nn2-c1ccccc1`: 7.94 µM [falling, partial curve]; for `Cc1cc(-c2ccccc2)nc(N2CCN(c3ccccn3)CC2)n1`: 3.16 µM [rising, single point].
Take `Cn1c(=O)c2c(nc(CN3CCN(Cc4ccccc4)CC3)n2Cc2cccc(Cl)c2)n(C)c1=O`: the AC50 is 10 µM [rising, partial curve].
For the compound `CCSc1nncn1/N=C/c1ccc(OC)c(OC)c1`, the AC50 was 12.6 µM [rising, partial curve].
The same measure for `CCN(CC)C(=O)c1cn(C)c(=O)c2cc(OC)c(OC)cc12`: 10 µM [rising, partial curve].
With `Cc1ccc(Cn2nnc3c(=O)[nH]c(C4CCN(C(=O)Cc5cccs5)CC4)nc32)cc1` the figure was 12.6 µM [rising, partial curve]; with `CCN(CC)S(=O)(=O)c1cccc(C(=O)OCc2cc(=O)n3nc(C)sc3n2)c1`, 12.6 µM [rising, partial curve, poor fit]; with `CCCC(=O)Nc1ccc(N2CCN(C(=O)c3cccs3)CC2)cc1`, 0.0398 µM [falling, partial curve, poor fit].
With `COc1ccc(-n2c(Cc3cccn3C)nnc2SCC(=O)Nc2ccc(C(C)=O)cc2)cc1` the figure was 5.01 µM [falling, partial curve].
In the case of `Cc1ccccc1CSc1nncn1N`, the concentration at half-maximal activity (AC50) is 6.31 µM [rising, single point].
With `CC1CCCCN1Cc1nc2c(c(=O)n(C)c(=O)n2C)n1Cc1c(F)cccc1Cl` (configuration not stated) the figure was 10 µM [rising, partial curve]; with `CCOC(=O)c1c(C)[nH]c(C(=O)Cn2c(=O)c3c(ncn3CC)n(Cc3ccccc3)c2=O)c1C`, 3.16 µM [rising, partial curve].
The same measure for `COc1cc2c(C(=O)NCc3ccccn3)cn(C)c(=O)c2cc1OC`: 10 µM [rising, partial curve]; for `Cc1ccnc(-n2c(CCN3C(=O)c4ccccc4C3=O)nc3ccccc3c2=O)c1`: 7.94 µM [rising, partial curve]; for `Cc1cccc(OCCCC(=O)Nc2ccc(N3CCOCC3)cc2)c1`: 0.398 µM [falling, full curve].
With `Cc1sc2ncnc(SCC(=O)N3CCCC3)c2c1C` the figure was 12.6 µM [rising, partial curve]; with `COc1ccc(-c2nc3cnc(N4CCNCC4)nc3n(Cc3cccc(OC)c3)c2=O)cc1`, 0.631 µM [rising, full curve].
In the case of `CCC(CC)NC(=O)c1cc(OC)c(OC)c(OC)c1`, the concentration at half-maximal activity (AC50) was 25.1 µM [rising, single point].
The same measure for `CCOC(=O)N1CCC2(CC1)C(C#N)=C(N)Oc1c2c(C)nn1-c1cccc(Cl)c1`: 5.01 µM [falling, partial curve]; for `Cn1nnnc1Sc1ncnc2scc(-c3ccccc3)c12`: 2 µM [rising, full curve]; for `Cn1c(-c2ccc3ccccc3n2)nc2cnccc21`: 6.31 µM [rising, partial curve].
With `COC(=O)[C@@]1(Cc2ccc(OC)cc2)[C@H]2c3cc(C(=O)N(C)C)n(C)c3C[C@H]2CN1C(=O)c1ccccc1` the figure was 10 µM [rising, partial curve].
As for `CC1(C)CC(=O)C(C=Nc2ccc3cn[nH]c3c2)=C(O)C1`, the AC50 was 10 µM [falling, partial curve].
The same measure for `C1=C(c2cccc3ccccc23)N2CCN=C2S1`: 6.31 µM [falling, partial curve].
The same measure for `Cc1nc2nc(C)c(CCC(=O)NCc3ccc4c(c3)OCO4)c(C)n2n1`: 2.51 µM [falling, full curve]; for `O=C(CSc1nnc(-c2ccccn2)n1-c1ccccc1)Nc1ccc2c(c1)OCO2`: 10 µM [rising, single point]; for `O=C(NCc1ccco1)Nc1cccs1`: 10 µM [falling, partial curve].
Regarding `CCCC(=O)Nc1nc(C(=O)OCC)cs1`, the AC50 was 0.251 µM [falling, partial curve].
With `COc1ccc2[nH]cc(CCNc3ncncc3-c3ccccc3C)c2c1` the figure was 12.6 µM [falling, single point].
Take `CC(=O)Oc1ccccc1N1C(=O)c2ccc(C(=O)O)cc2C1=O`: the AC50 is 1 µM [falling, full curve, poor fit].
`COc1ccc(Oc2ncc3nc(C)c(=O)n(CCc4ccccc4)c3n2)cc1`: the AC50 is 5.01 µM [rising, partial curve].
With `CNC(=O)c1ccccc1NC(=O)c1ccc(C)c(S(=O)(=O)N2CCCCC2)c1` the figure was 10 µM [rising, single point].
With `N#Cc1c(N2CCN(C(=O)c3ccco3)CC2)nc(-c2ccccc2)c2c1CCCC2` the figure was 20 µM [falling, single point].
With `C=CCSc1nnc(CSc2nc3sc4c(c3c(=O)[nH]2)CCCC4)n1-c1ccccc1` the figure was 12.6 µM [rising, partial curve].
Turning to `COc1cc(S(=O)(=O)N2CCCCCC2)ccc1Cl`, the AC50 is 3.98 µM [rising, single point].
With `C=CCc1cc(C)ccc1OCC(O)CN1CCN(c2ccccc2)CC1` (configuration not stated) the figure was 0.398 µM [falling, full curve, poor fit]; with `Cc1nc2cnc(N(C)C)nc2n(C)c1=O`, 10 µM [rising, partial curve]; with `O=C(CN1CCC(c2nc3ccccc3[nH]2)CC1)NCc1ccc2c(c1)OCO2`, 12.6 µM [falling, single point].
With `CCOC(=O)c1cc(C#N)c(N)nc1C` the figure was 2.51 µM [rising, full curve].
The same measure for `COc1cc(-c2nnc3sc(-c4ccccn4)nn23)cc(OC)c1OC`: 0.00398 µM [rising, full curve].
For the compound `CCN(CC)c1c(-c2ccccc2)c2cc(C)ccc2[nH]c1=O`, the AC50 is 3.98 µM [rising, partial curve].
On to `Cc1nc(-c2ccc(NC(=O)c3cccs3)cc2)cs1`, for which the AC50 is 25.1 µM [rising, single point].
With `COc1ccc2c(-c3ccccc3)cc(N3CCOCC3)nc2c1`, the AC50 is 20 µM [rising, single point].
With `COC(=O)COc1nc(C)c2c(c1C#N)CC(C)(C)OC2` the figure was 15.8 µM [rising, single point].
The same measure for `O=C(CC(c1ccccc1)c1cc(Br)ccc1O)NCc1ccco1` (configuration not stated): 10 µM [falling, partial curve].
With `CN(C)c1ncc2nc(CCc3ccccc3)c(=O)n(CCC#N)c2n1` the figure was 10 µM [rising, partial curve]; with `Cn1cc(-c2nc3cnc(Oc4cccc(Cl)c4)nc3n(C3CC3)c2=O)c2ccccc21`, 15.8 µM [rising, partial curve]; with `CC(C)NC[C@H](O)c1ccc(O)c(O)c1`, 25.1 µM [falling, partial curve].
Consider `CCn1c(Cc2ccccc2)nnc1SCC(=O)Nc1ccc(S(N)(=O)=O)cc1`, for which the half-maximal activity concentration (AC50) was 0.631 µM [rising, single point].
The same measure for `O=C(NC1CCCCC1)C(c1ccccc1)N(Cc1ccco1)C(=O)Cn1cnc2ccccc21` (configuration not stated): 5.01 µM [rising, single point]; for `COc1ccc(CNc2cc(-c3ccccc3Cl)ncn2)c(OC)c1`: 5.01 µM [rising, partial curve].
As for `O=C(COc1ncnc2ccccc12)NC1CCS(=O)(=O)C1` (configuration not stated), the AC50 is 0.631 µM [falling, single point].
The same measure for `COCCCNC(=O)C1CCN(S(=O)(=O)c2c(C)noc2/C=C\c2ccc(OC)cc2)CC1`: 10 µM [rising, partial curve]; for `C=CCn1cnc2c(NCc3ccccc3)ncnc21`: 25.1 µM [rising, single point]; for `COc1cc(C2N(c3ccccc3)CCN2c2ccccc2)ccc1OC(C)=O`: 6.31 µM [falling, partial curve].
In the case of `COc1ccc(NC(=O)Cc2nn(C)c(=O)c3ccccc23)c2ncccc12`, the AC50 was 1 µM [rising, partial curve].
With `C[C@@H](C(=O)Nc1ccc2ccccc2c1)[C@@H]1C[C@@]1(C)[C@@H](NC(=O)c1cnccn1)c1ccccc1` the figure was 5.01 µM [falling, full curve].
The same measure for `CCN(CC)c1ccc(-c2c(C#N)c(N)nc(OC)c2C#N)cc1`: 12.6 µM [rising, partial curve]; for `FC(F)(F)c1nnc2sc(-c3ccncc3)nn12`: 25.1 µM [rising, single point]; for `C=C1C(=O)C=C2CN(C(=O)c3ccccc3)[C@@](Cc3ccc(F)cc3)(C(=O)OC)[C@@H]12`: 0.501 µM [falling, full curve, poor fit].
Take `COc1ccc(NC(=O)C2CC(c3cc(OC)c(OC)c(OC)c3)=NO2)cc1OC` (configuration not stated): the AC50 was 25.1 µM [rising, partial curve].
With `CN1CC=C2C(C#N)=C(N)C(C#N)(C#N)C(c3cccc(Cl)c3Cl)C2C1` (configuration not stated) the figure was 12.6 µM [rising, partial curve].
